Measurements from the supplement of paper PMC10849652.
This is one part of the list.

Sequences of proteins named here, by UniProt entry; tags and fusion partners are left off. A change or cut given only in a name is not applied to a line headed by its entry.
UniProt Q96SY0, whole entry, looked up: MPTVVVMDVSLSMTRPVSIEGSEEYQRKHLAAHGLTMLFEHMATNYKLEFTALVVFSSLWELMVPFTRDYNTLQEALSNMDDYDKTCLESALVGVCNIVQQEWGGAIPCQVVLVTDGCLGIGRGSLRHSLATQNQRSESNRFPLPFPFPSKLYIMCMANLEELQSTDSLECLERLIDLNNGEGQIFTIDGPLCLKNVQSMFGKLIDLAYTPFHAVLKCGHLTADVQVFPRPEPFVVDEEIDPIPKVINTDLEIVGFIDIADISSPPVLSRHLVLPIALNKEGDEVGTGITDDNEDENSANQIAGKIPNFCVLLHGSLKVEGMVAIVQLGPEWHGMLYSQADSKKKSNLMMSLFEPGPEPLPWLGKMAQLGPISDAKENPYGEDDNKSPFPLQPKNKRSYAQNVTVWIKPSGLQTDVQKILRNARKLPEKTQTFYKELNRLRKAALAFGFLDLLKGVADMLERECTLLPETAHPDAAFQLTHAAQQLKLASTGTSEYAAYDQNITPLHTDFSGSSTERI
UniProt Q969R8: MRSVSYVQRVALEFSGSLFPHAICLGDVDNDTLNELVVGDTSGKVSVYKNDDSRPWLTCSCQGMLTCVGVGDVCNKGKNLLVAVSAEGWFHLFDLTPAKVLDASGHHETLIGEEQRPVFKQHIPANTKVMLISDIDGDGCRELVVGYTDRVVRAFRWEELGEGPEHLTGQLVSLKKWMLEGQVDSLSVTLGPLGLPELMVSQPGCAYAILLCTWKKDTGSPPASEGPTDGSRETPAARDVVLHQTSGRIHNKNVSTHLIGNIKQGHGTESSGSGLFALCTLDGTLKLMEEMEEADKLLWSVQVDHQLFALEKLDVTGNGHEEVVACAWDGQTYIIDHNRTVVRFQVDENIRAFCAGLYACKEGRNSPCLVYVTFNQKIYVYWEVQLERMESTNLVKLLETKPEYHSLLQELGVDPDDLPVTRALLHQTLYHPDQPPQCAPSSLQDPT
UniProt Q92993, whole entry, looked up: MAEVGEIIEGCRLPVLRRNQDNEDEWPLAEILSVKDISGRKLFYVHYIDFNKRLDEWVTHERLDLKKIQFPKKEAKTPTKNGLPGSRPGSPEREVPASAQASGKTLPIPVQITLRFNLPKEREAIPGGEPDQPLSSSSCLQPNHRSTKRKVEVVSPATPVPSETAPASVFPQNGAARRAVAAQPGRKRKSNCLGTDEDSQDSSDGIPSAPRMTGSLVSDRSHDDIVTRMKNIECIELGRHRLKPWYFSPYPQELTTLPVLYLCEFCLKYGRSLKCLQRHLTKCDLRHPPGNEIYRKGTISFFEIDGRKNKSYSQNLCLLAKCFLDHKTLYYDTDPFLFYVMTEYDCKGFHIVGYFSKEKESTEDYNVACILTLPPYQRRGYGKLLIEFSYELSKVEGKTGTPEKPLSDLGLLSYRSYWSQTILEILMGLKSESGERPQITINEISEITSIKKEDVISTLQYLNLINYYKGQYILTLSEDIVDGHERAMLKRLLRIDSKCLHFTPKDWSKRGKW
UniProt P38570: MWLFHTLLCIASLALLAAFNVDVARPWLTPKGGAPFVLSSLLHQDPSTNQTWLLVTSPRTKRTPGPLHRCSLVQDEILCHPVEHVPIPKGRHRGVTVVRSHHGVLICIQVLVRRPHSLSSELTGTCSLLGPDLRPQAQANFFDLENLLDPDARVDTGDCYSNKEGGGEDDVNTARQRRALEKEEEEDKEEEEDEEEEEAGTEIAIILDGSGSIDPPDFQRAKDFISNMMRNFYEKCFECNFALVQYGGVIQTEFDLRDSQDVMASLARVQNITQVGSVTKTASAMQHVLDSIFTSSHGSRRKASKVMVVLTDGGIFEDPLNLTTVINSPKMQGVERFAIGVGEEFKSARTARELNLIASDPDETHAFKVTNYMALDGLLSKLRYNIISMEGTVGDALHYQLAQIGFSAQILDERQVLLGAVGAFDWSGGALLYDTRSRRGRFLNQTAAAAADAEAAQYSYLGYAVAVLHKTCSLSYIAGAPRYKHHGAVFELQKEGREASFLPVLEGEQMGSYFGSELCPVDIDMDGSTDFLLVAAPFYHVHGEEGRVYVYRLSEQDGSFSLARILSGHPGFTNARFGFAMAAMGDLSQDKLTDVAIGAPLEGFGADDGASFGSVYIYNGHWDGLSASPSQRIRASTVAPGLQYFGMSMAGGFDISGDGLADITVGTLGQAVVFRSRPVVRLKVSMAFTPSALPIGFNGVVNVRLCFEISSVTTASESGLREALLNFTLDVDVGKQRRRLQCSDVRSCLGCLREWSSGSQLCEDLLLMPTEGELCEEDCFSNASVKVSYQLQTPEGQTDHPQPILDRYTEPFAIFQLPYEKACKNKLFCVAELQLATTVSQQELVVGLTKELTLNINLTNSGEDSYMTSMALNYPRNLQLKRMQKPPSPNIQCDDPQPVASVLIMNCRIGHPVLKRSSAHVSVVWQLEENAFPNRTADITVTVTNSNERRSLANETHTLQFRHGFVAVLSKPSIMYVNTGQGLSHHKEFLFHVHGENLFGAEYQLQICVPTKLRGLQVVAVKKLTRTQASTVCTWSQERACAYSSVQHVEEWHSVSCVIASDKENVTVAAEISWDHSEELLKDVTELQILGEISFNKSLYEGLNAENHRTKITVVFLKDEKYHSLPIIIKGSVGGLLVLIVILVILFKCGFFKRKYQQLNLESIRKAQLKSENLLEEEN
UniProt Q14624: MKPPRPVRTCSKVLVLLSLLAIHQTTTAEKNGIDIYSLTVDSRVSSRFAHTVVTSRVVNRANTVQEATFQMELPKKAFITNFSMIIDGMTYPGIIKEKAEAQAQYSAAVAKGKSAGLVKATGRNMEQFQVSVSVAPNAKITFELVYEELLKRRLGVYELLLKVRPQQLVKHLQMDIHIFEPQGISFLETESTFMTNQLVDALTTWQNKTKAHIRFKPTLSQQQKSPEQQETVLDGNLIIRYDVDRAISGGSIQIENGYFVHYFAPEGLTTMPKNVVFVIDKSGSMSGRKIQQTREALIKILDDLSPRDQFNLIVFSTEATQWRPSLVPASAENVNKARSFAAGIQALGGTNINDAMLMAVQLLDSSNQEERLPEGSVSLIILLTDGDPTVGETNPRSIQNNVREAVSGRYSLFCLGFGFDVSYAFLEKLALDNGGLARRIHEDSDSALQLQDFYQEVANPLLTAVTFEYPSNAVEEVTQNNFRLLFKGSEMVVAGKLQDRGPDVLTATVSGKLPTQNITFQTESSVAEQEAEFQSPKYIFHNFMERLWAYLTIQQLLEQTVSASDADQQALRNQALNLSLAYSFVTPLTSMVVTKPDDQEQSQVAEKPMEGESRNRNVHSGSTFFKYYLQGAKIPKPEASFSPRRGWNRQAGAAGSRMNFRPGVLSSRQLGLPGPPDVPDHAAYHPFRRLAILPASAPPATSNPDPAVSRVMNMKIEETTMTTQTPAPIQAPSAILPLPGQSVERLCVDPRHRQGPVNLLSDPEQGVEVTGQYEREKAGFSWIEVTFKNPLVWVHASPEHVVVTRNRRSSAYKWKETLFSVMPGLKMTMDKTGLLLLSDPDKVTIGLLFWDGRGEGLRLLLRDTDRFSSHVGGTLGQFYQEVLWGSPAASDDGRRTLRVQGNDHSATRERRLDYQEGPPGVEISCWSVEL
UniProt Q15051: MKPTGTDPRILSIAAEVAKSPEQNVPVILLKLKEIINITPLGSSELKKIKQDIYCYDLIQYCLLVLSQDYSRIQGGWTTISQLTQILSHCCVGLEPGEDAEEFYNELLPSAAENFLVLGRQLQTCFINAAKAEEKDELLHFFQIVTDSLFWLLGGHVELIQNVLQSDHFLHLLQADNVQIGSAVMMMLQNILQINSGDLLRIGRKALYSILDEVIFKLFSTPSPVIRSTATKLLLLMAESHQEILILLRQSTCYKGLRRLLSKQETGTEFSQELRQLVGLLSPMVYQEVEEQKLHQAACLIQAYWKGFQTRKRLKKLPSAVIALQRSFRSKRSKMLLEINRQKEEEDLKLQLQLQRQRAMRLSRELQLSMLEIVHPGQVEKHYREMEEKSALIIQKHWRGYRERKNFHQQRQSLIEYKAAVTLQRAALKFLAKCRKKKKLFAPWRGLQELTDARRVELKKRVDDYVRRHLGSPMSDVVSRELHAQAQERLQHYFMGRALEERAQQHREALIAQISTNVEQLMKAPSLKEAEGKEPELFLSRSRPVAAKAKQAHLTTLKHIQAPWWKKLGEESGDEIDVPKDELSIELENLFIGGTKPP
UniProt P17535: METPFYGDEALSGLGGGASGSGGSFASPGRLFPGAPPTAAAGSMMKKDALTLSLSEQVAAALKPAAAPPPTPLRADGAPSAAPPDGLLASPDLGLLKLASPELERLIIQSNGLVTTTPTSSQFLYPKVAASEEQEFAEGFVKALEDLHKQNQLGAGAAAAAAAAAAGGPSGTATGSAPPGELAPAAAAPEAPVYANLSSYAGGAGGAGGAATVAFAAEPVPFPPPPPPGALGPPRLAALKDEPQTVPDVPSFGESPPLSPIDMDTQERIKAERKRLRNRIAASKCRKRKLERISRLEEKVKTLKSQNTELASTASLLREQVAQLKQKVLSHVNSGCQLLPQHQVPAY
UniProt Q6DN90: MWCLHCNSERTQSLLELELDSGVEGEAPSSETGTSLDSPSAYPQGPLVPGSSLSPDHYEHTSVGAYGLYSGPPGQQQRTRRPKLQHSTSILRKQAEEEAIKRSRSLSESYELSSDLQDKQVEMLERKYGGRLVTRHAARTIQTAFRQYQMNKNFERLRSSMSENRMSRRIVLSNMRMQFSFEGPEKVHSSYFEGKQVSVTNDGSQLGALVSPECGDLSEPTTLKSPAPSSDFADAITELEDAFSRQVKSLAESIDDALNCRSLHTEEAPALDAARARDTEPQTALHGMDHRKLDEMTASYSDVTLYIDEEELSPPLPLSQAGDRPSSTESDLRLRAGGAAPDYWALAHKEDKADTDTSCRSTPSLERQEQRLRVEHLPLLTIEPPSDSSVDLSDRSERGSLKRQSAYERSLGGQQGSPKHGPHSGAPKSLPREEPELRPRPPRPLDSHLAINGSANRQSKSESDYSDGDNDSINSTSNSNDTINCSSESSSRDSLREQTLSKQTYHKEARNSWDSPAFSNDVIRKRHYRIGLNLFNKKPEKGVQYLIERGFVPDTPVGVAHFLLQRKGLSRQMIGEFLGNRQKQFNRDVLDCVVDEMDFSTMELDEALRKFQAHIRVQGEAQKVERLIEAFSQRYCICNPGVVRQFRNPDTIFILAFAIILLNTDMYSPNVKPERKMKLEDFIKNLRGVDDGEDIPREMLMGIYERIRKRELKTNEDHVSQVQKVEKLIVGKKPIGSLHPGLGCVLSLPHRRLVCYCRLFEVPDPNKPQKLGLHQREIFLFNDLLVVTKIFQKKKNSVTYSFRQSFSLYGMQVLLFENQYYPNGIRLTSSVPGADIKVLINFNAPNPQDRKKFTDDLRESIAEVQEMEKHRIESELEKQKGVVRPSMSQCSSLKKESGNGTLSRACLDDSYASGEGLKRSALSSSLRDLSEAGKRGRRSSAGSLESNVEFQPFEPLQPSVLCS
UniProt Q96SI1: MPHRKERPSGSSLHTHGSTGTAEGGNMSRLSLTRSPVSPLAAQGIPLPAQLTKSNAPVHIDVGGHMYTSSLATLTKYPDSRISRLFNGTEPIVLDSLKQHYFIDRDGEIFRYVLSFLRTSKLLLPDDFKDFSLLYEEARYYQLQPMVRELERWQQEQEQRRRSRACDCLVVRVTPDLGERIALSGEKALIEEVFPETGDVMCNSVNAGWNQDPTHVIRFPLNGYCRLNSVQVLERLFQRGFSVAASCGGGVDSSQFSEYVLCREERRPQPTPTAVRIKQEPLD
UniProt Q9Y597: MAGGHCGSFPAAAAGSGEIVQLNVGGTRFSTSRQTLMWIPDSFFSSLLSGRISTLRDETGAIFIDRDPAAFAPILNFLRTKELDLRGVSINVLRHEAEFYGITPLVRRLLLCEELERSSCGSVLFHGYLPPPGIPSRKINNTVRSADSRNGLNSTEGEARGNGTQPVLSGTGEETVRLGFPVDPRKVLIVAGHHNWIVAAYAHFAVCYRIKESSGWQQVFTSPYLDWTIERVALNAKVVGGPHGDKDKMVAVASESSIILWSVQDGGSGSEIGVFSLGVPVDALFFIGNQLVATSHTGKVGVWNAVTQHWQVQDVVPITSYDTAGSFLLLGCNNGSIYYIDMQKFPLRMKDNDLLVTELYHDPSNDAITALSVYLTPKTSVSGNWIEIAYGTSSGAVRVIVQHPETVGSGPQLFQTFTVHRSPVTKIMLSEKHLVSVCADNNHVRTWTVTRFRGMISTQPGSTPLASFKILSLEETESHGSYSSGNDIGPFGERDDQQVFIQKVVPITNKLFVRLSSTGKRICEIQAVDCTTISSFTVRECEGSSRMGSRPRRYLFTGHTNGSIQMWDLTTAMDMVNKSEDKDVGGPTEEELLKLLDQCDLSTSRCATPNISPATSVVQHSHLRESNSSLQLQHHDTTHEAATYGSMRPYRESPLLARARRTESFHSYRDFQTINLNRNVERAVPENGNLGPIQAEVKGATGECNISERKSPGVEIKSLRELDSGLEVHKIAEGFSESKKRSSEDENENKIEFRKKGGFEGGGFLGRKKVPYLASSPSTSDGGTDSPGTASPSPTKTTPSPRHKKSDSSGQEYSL

Assays:
Assay in all cases: log2 fold change, soluble protein after heating vs DMSO (PISA); higher = thermal stabilisation; K562 lysate, 10 uM; active = over 0.2 and 3.5 SD of the protein, either way, in both replicates (recomputed)
[1] = compound: NCC(=O)Nc1ccc(-n2nc(C(F)(F)F)cc2-c2ccc3c(ccc4ccccc43)c2)cc1
How it was run: (§1)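 Quantification was by TMTpro 16plex LC-MS/MS with equalised channel sums, applied to the supernatant after 21,000xg for 90 min. Samples were crude K562 extract at 1 mg/mL protein in PBS pH 7.4 with 1 mM MgCl2, treated with 10 μM compound for 30 min, heated for 3 min across 48°C-58°C, pooled and brought to 0.5% NP-40 at 4°C. Values are log-two fold changes in thermal stability relative to solvent controls, from duplicates.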

vorinostat = compound: O=C(CCCCCCC(=O)Nc1ccccc1)NO [vorinostat]
How it was run: as §1

silmitasertib = compound: O=C(O)c1ccc2c(c1)nc(Nc1cccc(Cl)c1)c1ccncc12 [silmitasertib]
How it was run: as §1

[2] = compound: O=C1NC(=O)C(c2cnc3ccccn23)=C1c1cn2c3c(cc(F)cc13)CN(C(=O)N1CCCCC1)CC2
How it was run: as §1

entospletinib = compound: c1cn2cc(-c3ccc4cn[nH]c4c3)nc(Nc3ccc(N4CCOCC4)cc3)c2n1 [entospletinib]
How it was run: as §1

Target	log2 fold change [1]	log2 fold change (vorinostat)	log2 fold change (silmitasertib)	log2 fold change [2]	log2 fold change (entospletinib)
KCTD5 (UniProt Q9NXV2)	inactive: -0.016	inactive: 0.057	inactive: -0.046	inactive: -0.012	inactive: -0.032
KAT8 (UniProt Q9H7Z6)	inactive: 0.028	inactive: 0.008	inactive: -0.02	inactive: -0.08	inactive: -0.027
KBTBD7 (UniProt Q8WVZ9)	inactive: -0.022	inactive: 0.041	inactive: -0.05	inactive: -0.018	inactive: 0.069
INTS6 (UniProt Q9UL03)	inactive: -0.093	inactive: -0.271	inactive: -0.07	inactive: -0.068	inactive: 0.266
INTS14 (UniProt Q96SY0)	inactive: -0.008	active: -0.311	inactive: 0.002	inactive: 0.023	inactive: 0.026
JMJD6 isoform 3 (UniProt Q6NYC1)	inactive: -0.03	inactive: -0.029	inactive: 0.037	inactive: 0.003	inactive: 0.007
KANSL3 (UniProt Q9P2N6)	inactive: 0.175	inactive: -0.056	inactive: 0.053	inactive: 0.099	inactive: -0.065
ITFG2 (UniProt Q969R8)	inactive: -0.027	inactive: -0.02	inactive: 0.025	inactive: -0.087	inactive: -0.108
IPO7 (UniProt O95373)	inactive: -0.001	inactive: 0.032	inactive: 0.011	inactive: -0.008	inactive: 0.028
ITPA (UniProt Q9BY32)	inactive: 0.037	inactive: 0.117	inactive: -0.026	inactive: 0.027	inactive: 0.004
KCTD9 (UniProt Q7L273)	inactive: -0.049	inactive: -0.007	inactive: -0.062	inactive: 0.016	inactive: -0.022
KDM1B (UniProt Q8NB78)	inactive: -0.05	inactive: -0.17	inactive: -0.099	inactive: -0.008	inactive: -0.019
KAT5 isoform 3 (UniProt Q92993)	inactive: -0.094	inactive: -0.239	inactive: 0.052	inactive: -0.075	inactive: -0.021
ITGB1 (UniProt P05556)	inactive: 0.014	inactive: 0.105	inactive: 0.014	inactive: 0.016	inactive: 0.009
INTS2 (UniProt Q9H0H0)	inactive: -0.054	inactive: -0.157	inactive: 0.068	inactive: -0.035	inactive: 0.073
KAT7 (UniProt O95251)	inactive: 0.085	inactive: 0.075	inactive: 0.009	inactive: 0.094	inactive: 0.047
IRGQ (UniProt Q8WZA9)	inactive: 0.01	inactive: 0.046	inactive: 0.006	inactive: 0.005	inactive: 0.006
IREB2 (UniProt P48200)	inactive: 0.024	inactive: -0.114	inactive: 0	inactive: 0.008	inactive: 0.006
JPT1 (UniProt Q9UK76)	inactive: -0.001	inactive: 0.163	inactive: -0.076	inactive: 0.012	inactive: -0.086
KATNAL1 (UniProt Q9BW62)	inactive: 0.006	inactive: -0.094	inactive: -0.056	inactive: -0.036	inactive: 0.048
KCTD10 (UniProt Q9H3F6)	inactive: 0	inactive: -0.024	inactive: 0.053	inactive: 0.06	inactive: -0.032
ITGAE (UniProt P38570)	inactive: 0.143	inactive: 0.349	inactive: -0.033	–	inactive: -0.031
IPO11 isoform 2 (UniProt Q9UI26)	inactive: 0.001	inactive: -0.127	inactive: -0.02	inactive: -0.018	inactive: -0.002
IRF2BP2 (UniProt Q7Z5L9)	inactive: -0.028	inactive: 0.073	inactive: -0.054	inactive: -0.016	inactive: 0.034
KBTBD2 (UniProt Q8IY47)	inactive: 0.047	inactive: 0.145	inactive: -0.039	inactive: 0.038	inactive: 0.026
KAT14 (UniProt Q9H8E8)	inactive: 0.129	inactive: -0.233	inactive: 0.093	–	inactive: -0.077
ITIH4 (UniProt Q14624)	inactive: 0.046	inactive: 0.232	inactive: 0.02	–	inactive: 0.044

Limited to log2 fold change (entospletinib) and log2 fold change [1] (2 entries from above):
Target,log2 fold change (entospletinib),log2 fold change [1]
KCTD5 (UniProt Q9NXV2),inactive: -0.032,inactive: -0.016
KAT8 (UniProt Q9H7Z6),inactive: -0.027,inactive: 0.028

Fetched one by one from above:
Target	log2 fold change [1]	log2 fold change (vorinostat)	log2 fold change (silmitasertib)	log2 fold change [2]	log2 fold change (entospletinib)
ITIH4 (UniProt Q14624)	inactive: 0.046	inactive: 0.232	inactive: 0.02	–	inactive: 0.044
KCTD9 (UniProt Q7L273)	inactive: -0.049	inactive: -0.007	inactive: -0.062	inactive: 0.016	inactive: -0.022

The listing continues:

Target	log2 fold change [1]	log2 fold change (vorinostat)	log2 fold change (silmitasertib)	log2 fold change [2]	log2 fold change (entospletinib)
KDM3B (UniProt Q7LBC6)	inactive: 0.021	inactive: -0.194	inactive: -0.006	inactive: -0.006	inactive: 0.009
IQCB1 (UniProt Q15051)	inactive: 0.051	inactive: -0.014	inactive: -0.098	–	inactive: 0.095
KATNBL1 (UniProt Q9H079)	inactive: 0.111	inactive: -0.176	inactive: -0.02	inactive: 0.144	inactive: 0.234
ISYNA1 (UniProt Q9NPH2)	inactive: -0.016	inactive: 0.162	inactive: -0.008	inactive: -0.015	inactive: 0
JUND (UniProt P17535)	inactive: 0.132	inactive: 0.009	inactive: -0.005	inactive: 0.015	inactive: 0.037
ITSN2 (UniProt Q9NZM3)	inactive: 0.035	inactive: -0.033	inactive: 0.038	inactive: -0.007	inactive: 0
IST1 (UniProt P53990)	inactive: -0.002	inactive: 0.025	inactive: 0.003	inactive: -0.03	inactive: -0.02
ISY1 isoform 1 (UniProt Q9ULR0)	inactive: -0.163	inactive: 0.05	inactive: 0.032	inactive: -0.01	inactive: -0.02
IQSEC1 (UniProt Q6DN90)	inactive: -0.016	inactive: -0.256	inactive: -0.004	inactive: -0.01	inactive: -0.057
ITPKA (UniProt P23677)	inactive: 0.033	active: -0.36	inactive: 0.09	inactive: -0.101	inactive: 0.081
ISOC2 (UniProt Q96AB3)	inactive: -0.064	active: 0.304	inactive: -0.036	inactive: 0	inactive: 0.033
KCTD15 (UniProt Q96SI1)	inactive: -0.02	inactive: 0.149	inactive: -0.042	inactive: -0.01	inactive: 0.006
KCTD20 (UniProt Q7Z5Y7)	inactive: -0.137	active: -0.323	inactive: 0.035	inactive: 0.053	inactive: 0.091
ISG20L2 (UniProt Q9H9L3)	inactive: 0.223	inactive: 0.167	inactive: 0.055	–	inactive: 0.132
ITFG1 (UniProt Q8TB96)	inactive: 0.016	inactive: 0.098	inactive: -0.043	inactive: -0.015	inactive: 0.014
ITM2A (UniProt O43736)	inactive: -0.005	inactive: 0.065	inactive: 0.058	–	inactive: -0.036
KCTD3 (UniProt Q9Y597)	inactive: 0.03	inactive: -0.003	inactive: -0.008	inactive: -0.022	inactive: -0.056
ISCU (UniProt Q9H1K1)	inactive: -0.027	inactive: -0.042	inactive: 0.027	inactive: -0.057	inactive: 0.005
ISCA1 isoform 2 (UniProt Q9BUE6)	inactive: -0.005	inactive: 0.043	inactive: 0.015	inactive: 0.004	inactive: 0.071
KCT2 (UniProt Q8NC54)	inactive: 0.015	inactive: 0.157	inactive: 0.005	inactive: -0.04	inactive: -0.026
KCTD21 (UniProt Q4G0X4)	inactive: 0.039	inactive: -0.314	inactive: -0.06	inactive: 0.188	inactive: -0.067
IPP (UniProt Q9Y573)	inactive: 0.04	active: -0.633	inactive: 0.205	–	inactive: 0.074
IQGAP2 (UniProt Q13576)	inactive: 0.012	inactive: -0.21	inactive: 0.038	inactive: 0.018	inactive: 0.027
ISCA2 (UniProt Q86U28)	inactive: -0.098	inactive: 0.073	inactive: -0.053	inactive: 0.036	inactive: -0.003
KBTBD4 isoform 2 (UniProt Q9NVX7)	inactive: 0.025	active: -0.311	inactive: 0.012	inactive: -0.023	inactive: -0.012
KDELR3 (UniProt O43731)	inactive: 0.002	inactive: 0.126	inactive: 0.093	inactive: 0.054	inactive: -0.296
IPO5 (UniProt H0Y3V4)	inactive: 0.053	inactive: 0.097	inactive: -0.186	–	inactive: 0.042
